Experimental data from PubChem BioAssay AID2685 (National Center for Advancing Translational Sciences (NCATS), 2010).
The list shows a part of the results. Further columns of the screen follow, without active or inactive calls. Most of these compounds were active or inconclusive in the main read-out, so they are no random draw. Potencies come from curve fits of mixed quality, noted in brackets.

Test: qHTS Assay for Lipid Storage Modulators in Drosophila S3 Cells;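 as to cell number change: cells counted by Cell Tracker Red CMTPX staining in the red channel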
Settings: BODIPY lipid droplet fluorescence, 18-24 h; for cell number change: measured here: cell count max response, cells fed with added oleic acid
Summary of the method: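 Drosophila S3 cells got compounds at several concentrations plus oleic acid (400 uM solution). Laser-scanning cytometry with 488 nm excitation read lipid droplets at 500-530 nm and cells at 575-640 nm. Percent activity was relative to 20 uM Triacsin C.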

[1] = measured here: cell number channel AC50, cells fed with added oleic acid
[2] = measured here: lipid fluorescence (Fed channel) AC50, cells fed with added oleic acid

SMILES	cell number change [%]	AC50 [1]	AC50 [2]
NNC(=O)c1sc(-c2ccc(Cl)cc2)cc1N	-8.8		
CC(=O)Nc1ccc(S[C@@H](CCN2CC[C@H](C(C)(C)C)CCC2=O)c2ccccc2)cc1	1.72	6.51 µM [falling, single point]	6.51 µM [falling, single point]
COC(=O)[C@]1(C)N[C@H](c2ccc(SC3CCCCC3)c(OC)c2)[C@@H]2C(=O)N(C)C(=O)[C@@H]21	19.3		0.366 µM [rising, full curve, poor fit]
C=CCNC(=S)N/N=C/c1ccc(C)s1	-18.8		20.6 µM [falling, single point]
CCCc1cc(=O)[nH]c(SCC(=O)Nc2cc3c(cc2C(C)=O)OCO3)n1	-5.25		29.1 µM [rising, single point]
CCC(C)[C@H](NC(=O)N1CC(=O)Nc2ccccc21)C(=O)N[C@H](C(=O)O)c1ccccc1 (stereo not given in full)	-65.3	18.4 µM [falling, partial curve]	1.16 µM [falling, full curve, poor fit]
COc1ccc2[nH]c(C)c(C(=O)CN(C)C)c2c1	-18.3		0.651 µM [falling, single point]
O=C(c1cnc2sccn2c1=O)N1CCCc2ccccc21	-2.35	0.103 µM [falling, full curve, poor fit]	
O=C(CSc1nnc(-c2ccncc2)o1)NC1C2CC3CC(C2)CC1C3 (stereo not given)	8.78		29.1 µM [falling, single point]
O=C(NNC(=O)c1ccccc1[N+](=O)[O-])c1csc(N2CCOCC2)n1	-2.83		0.0259 µM [rising, full curve, poor fit]
Cc1nc2ncnn2c(N2CCCC(C(=O)Nc3ccc4c(c3)CCC4)C2)c1C (stereo not given)	-33.6	10.3 µM [falling, partial curve, poor fit]	0.146 µM [rising, full curve, poor fit]
CCCCC(CC)C(=O)Nc1cccc(SC)c1 (stereo not given)	4.23		2.91 µM [falling, single point]
Cc1cc2c(C)c(C)c(=O)[nH]c2cc1N	28.1		0.13 µM [rising, full curve, poor fit]
COCCN1C(=O)N(c2ccc(OC)cc2)C(=O)C1CC(=O)Nc1cccc(F)c1 (stereo not given)	6.32		18.4 µM [rising, single point]
COc1ccc(CC2SC(=Nc3ccc(F)cc3)NC2=O)cc1 (stereo not given)	-10.5		29.1 µM [falling, single point]
COC(=O)c1c(C(=O)OC)n(CCCN)c2ccc(C)cc12	34.6	29.1 µM [rising, single point]	25.9 µM [rising, single point]
CCOc1ccc(N/C=C/C(=O)c2ccc(OC)c(OC)c2)cc1	-15.9		
COc1ccc([N+](=O)[O-])cc1NC(=O)C(C)N1CCCC1 (stereo not given)	3.17		
O=C(Cc1cccs1)Nc1nc(-c2ccc(F)cc2F)cs1	-25.5		0.651 µM [rising, full curve]
Cc1nnc(SCC(=O)Nc2cccc(N)c2)n1-c1ccccc1	17.9		7.31 µM [rising, partial curve]
CCOC(=O)c1cc(NC(=O)C2CCCO2)cc(C(=O)OCC)c1 (stereo not given)	30	32.6 µM [rising, single point]	

Taken from above.
cell number change [%], CCCCC(CC)C(=O)Nc1cccc(SC)c1 (stereo not given) reads 4.23
AC50 [2], COc1ccc(CC2SC(=Nc3ccc(F)cc3)NC2=O)cc1 (stereo not given) reads 29.1 µM [falling, single point]
cell number change [%], NNC(=O)c1sc(-c2ccc(Cl)cc2)cc1N reads -8.8

Later entries.

SMILES	cell number change [%]	AC50 [1]	AC50 [2]
O=C(Oc1cc(Cl)ccc1Cl)c1ccc(N2CCOCC2)c([N+](=O)[O-])c1	39.4	29.1 µM [rising, single point]	29.1 µM [rising, single point]
O=C(O)CC/C(=N/Nc1ncc(C(F)(F)F)cc1Cl)C(=O)O	7.01	0.00651 µM [rising, full curve, poor fit]	
CC(C)(C)c1cc(CCC(=O)NNC(=O)c2ccncc2)cc(C(C)(C)C)c1O	8.9		
CCCC[N+](CC#Cc1ccccc1)(CCCC)CCCS(=O)(=O)[O-]	-6.88		
COc1ccc(-n2nnnc2-c2cccc(OC)c2)cc1	26.7		4.11 µM [rising, partial curve]
CCn1c(SCC(=O)c2ccc3c(c2)Cc2ccccc2-3)nnc1-c1ccc(N)cc1	-22.9		29.1 µM [falling, single point]
COCC(=O)Nc1ncc(S(=O)(=O)c2ccc([N+](=O)[O-])cc2)s1	-1.49		13 µM [falling, partial curve]
COCC(C)n1c(C)cc(C(=O)CSc2ccc(NC(C)=O)cc2)c1C (stereo not given)	44.7	9.2 µM [rising, partial curve]	
O=C(CN1C(=O)NC2(CCc3ccccc32)C1=O)c1ccc(Br)s1 (stereo not given)			3.66 µM [falling, full curve]
c1ccc(C2=Nc3ccccc3NC(c3ccccc3)C2)cc1 (stereo not given)	4.88	6.51 µM [falling, single point]	29.1 µM [rising, single point]
O=C(N/N=C/C=C\c1ccccc1[N+](=O)[O-])c1cc(-c2ccccc2)nc2ccccc12	11.7		9.2 µM [rising, partial curve, poor fit]
COc1ccc(N2CCN(C(=O)COc3ccc(S(=O)(=O)N4CCOCC4)cc3C)CC2)cc1	30.3		0.058 µM [falling, full curve, poor fit]
Cc1cc2cc(CNC(=O)CCC(=O)O)ccc2[nH]1	1.49		
C=CCn1c(SCCC#N)nnc1-c1ccncc1	25.8		3.26 µM [rising, single point]
CCS(=O)(=O)c1ccc(O)c(NC(=O)c2cc(OC)c(OC)c(OC)c2)c1	-16.6		4.11 µM [rising, partial curve, poor fit]
N=C1C(c2nc3ccccc3c(=O)[nH]2)=C(O)CN1CCc1ccccc1	0.184		0.58 µM [rising, full curve, poor fit]
CCc1ccccc1N1CCN(S(=O)(=O)c2ccc(F)c(C)c2)CC1	25.9		6.51 µM [rising, partial curve]
O=C(c1ccccc1)C1CN(Cc2ccccc2)CCC1(O)c1ccccc1 (stereo not given)	1.33		0.00517 µM [falling, full curve, poor fit]
CCOc1ccc2nc(NC(=O)CSc3nc4cccnc4n3C)sc2c1	-70.9	16.4 µM [falling, single point]	18.4 µM [falling, partial curve]
CCc1nnc(NS(=O)(=O)c2ccc(N)cc2)s1	13		18.4 µM [rising, partial curve, poor fit]
CC1C(c2ccccc2)N(C)CCC12NC(=O)NC2=O (stereo not given)	-5.7		6.51 µM [falling, single point]

SMILES	cell number change [%]	AC50 [1]	AC50 [2]
O=C(O)c1cccc(S(=O)(=O)N2CC=C(c3ccccc3)CC2)c1	11.1		
Cc1nc(/C=C/c2ccccc2)cc(/C=C/c2ccccc2)n1	43.2	0.411 µM [rising, full curve]	6.51 µM [rising, partial curve]
N=c1sccn1CC(=O)Nc1cccc2ccccc12	9.52		0.00461 µM [falling, full curve, poor fit]
O=C(NCCc1csc(-c2ccc(Cl)cc2)n1)c1ccco1	-11		29.1 µM [falling, single point]
c1cncc(-c2nnc3n2N=C(c2cccs2)CS3)c1	-29.5		
COC(=O)c1ccccc1NC(=O)CN1CCC(n2nnc3cc(C)ccc32)CC1	-7.37		
O=C(COC(=O)c1c[nH]c(=O)[nH]c1=O)Nc1cccc([N+](=O)[O-])c1	18.3		3.26 µM [rising, single point]
Cc1ccccc1CNC(=O)COc1ccccc1	-5.87		
Cc1ccc(-n2nc3c(c2NC(=O)c2ccco2)CS(=O)C3)cc1 (stereo not given)	8.4		
CC(=O)N1c2ccc(S(=O)(=O)NCC3CCC(C(=O)Nc4cc(C)ccn4)CC3)cc2CC1C (stereo not given)	16.4		18.4 µM [falling, partial curve]
Cc1cccc(C(=O)NCCN2CCCC2)c1	1.28		1.03 µM [rising, full curve]
CCSc1ncc(/C=N/Nc2ccc([N+](=O)[O-])cc2)n1C	-27.7		0.82 µM [rising, single point]
Clc1cc(NC2CCCCC2)ncn1	-26.3		0.00461 µM [falling, full curve, poor fit]
CC1CCCCN1CCCNC(=O)C1CCN(c2nnc(-n3cccc3)s2)CC1 (stereo not given)	-24.4		29.1 µM [falling, single point]
COc1ccc(NC(C)=O)cc1S(=O)(=O)N1CCN(C/C=C/c2ccccc2)CC1			6.51 µM [rising, single point]
COc1cc(/C=C/C(=O)OCC(=O)Nc2ccc(Cl)cn2)ccc1O	-24.9	0.731 µM [falling, full curve, poor fit]	
Cc1cccc(N(CC(N)=O)C2SC(=O)N(c3ccccc3)C2=O)c1 (stereo not given)	-39.5	5.8 µM [falling, full curve]	5.17 µM [falling, full curve]
CCn1c(/C(C#N)=C(\O)CCc2ccccc2)nc2ccccc21	12.8		4.11 µM [rising, single point]
CC/C(=N\NC(=O)CSc1ncccn1)c1ccc2c(c1)OCCO2	8.21		29.1 µM [rising, single point]
O=C(O)c1n[nH]c2c1CCCC2	2.77		0.184 µM [falling, partial curve]
